This series concerns the target T1, LldR (Escherichia coli K-12 W3110 type-A) (UniProt P0ACL7).
T1 sequence (looked up): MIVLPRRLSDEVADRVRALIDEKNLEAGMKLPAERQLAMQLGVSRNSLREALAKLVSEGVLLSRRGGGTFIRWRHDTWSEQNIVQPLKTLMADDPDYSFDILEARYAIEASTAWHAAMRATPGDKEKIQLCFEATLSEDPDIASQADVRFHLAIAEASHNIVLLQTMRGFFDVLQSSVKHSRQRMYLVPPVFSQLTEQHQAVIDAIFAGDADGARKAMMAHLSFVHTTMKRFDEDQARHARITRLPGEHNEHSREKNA
In words: EMSA. Particulars: EMSA: binding buffer (composition given for gSELEX: 10 mM Tris-HCl pH 7.8 at 4 °C, 3 mM Mg acetate, 150 mM NaCl, 1.25 mg/ml BSA), 37 °C 30 min, then effector 30 min, recombinant protein, residues 1-258, protein details: C-terminal His, label: none (GelRed stain), probe letters rebuilt from the primers and the genome. (In general: A gel shift assay detects complexes by their altered migration in electrophoresis.)

[1] abbreviates: 20-320 pmol LldR, 0.5 pmol probe.

Tags and fusion partners may be left off the protein sequences shown. For at least one entry, the source does not settle the construct or the ends of the probe. Weaker means in comparison with the reference protein, sequence or condition of that experiment. At least one verdict rests on a figure or table, not on a statement of the authors.

In the case of “TTGATTTCCTCTGTATGTGCACCCAAGGTGCCAGATAAACGTTGTGGATATTTTACGCTTCCGGAAAGTGCTGCTCCAGTTGTTAATTCTGCAAAATCGGATAAGTGACCGAAATCACACTTAAAAATGATCTAAAACAAAATTCACCCGAATCCATGAGTGCGCCACCTCCAAATTTTGCCAGCTGGATCGCGTTTCTTAGATCATATTTGAAAAAAGATAGAAACATACTTGCAACATTCCAGCTGGTCCGACCTATACTCTCGCCACTGGTCTGATTTCTAAGATGTACCTCAGACCCTACACTTCGCGCTCCTGTTACAGCACGTAACATAGTTTGTATAAAAATAAATCATTGAGGTTATGGTC (double strand) [yfcZ/fadL probe]”, under setting [1], the binding result was “binds”.
With “CAGGAGATGACTGGGTTTTCAAAGACCGCGTTTTAAGAACACAGTATCTACAGGGTGATTCTGCACATTCCTATAGGCCGAGTAAGGTGTTCACGCCGCATCCGGCAAGATAAGGCGCTCTGGATCAACAACCTAAGGGCAATTCTCTGATGAGGATTGCCCTTTTCTTTACCAGACATCTCCCCCCACAAGAATTGGCCCTACCAATTCTTCGCTTATCTGACCTCTGGTTCACAATTTCCCAATTAAAACTCACATCAATGTTGCCAATACATAACATTTAGTTAACCATTCATTGTCATTATCCCTACACAACACAATTGGCAGTGCCACTTTTACACAACGTGTGACAAGGAGATGAGCAACAGACTCATTACACGATGTGCGTGGACTCCAGGAGACCTGCA (double strand) [lldP promoter probe]”, the binding result by setting is: (20-320 pmol LldR, 0.5 pmol probe, highest binding of all probes) “binds”; (D-lactate 5 mM (enhanced, no significant change below 1 mM)) “binds”; (D-lactate >5 mM (10-50 mM tested, dissociation)) “binds more weakly”; (L-lactate 5 mM (enhanced, no significant change below 1 mM)) “binds”; (L-lactate >5 mM (10-50 mM tested, dissociation)) “binds more weakly”; (acetate 5 mM (effect similar to lactate)) “binds”. The binding result (acetate >5 mM (10-50 mM tested, effect similar to lactate)) was “binds more weakly”; the binding result (glycolate 0.1-50 mM (slight effect)) is listed as “binds”; the binding result (pyruvate 0.1-50 mM (no effect)) was “binds”.
In the case of “AACGAAAAGCCCCTTACTTGTAGGAGGTCTGACCACTTGTGATGATATGGTTGTAGTGGATGTAAAAACATTTAGCAATATGTTTACAATATAATTACAACAAAGCTCACATTGTTGCTGTTTTTATCCGCACTTCAGGTCAAAAAGTCCTGGTCATAGCACCTGCCCGTACTTCTCGCTTTTGGCGGTATCCGGTACACTGCATTTTGTCTATTACATTTATGCTGAAGGATATCCTCATGTACCAGGATCTTATTCGTAACGAACTGAACGAAGCGGCGGAAACGCTGGCTAACTTTTTAAAAGATGACGCCAATATTCACGCCATTCAGCGCGCGGCGGTCCTGTTAGCAGACAGCTTTA (double strand) [fadE/gmhA probe]”, under setting [1], the binding result is “binds”.
In the case of “TTTTGCTGATGAATAAGTTCCCAGGGGATTTGCCGAAATTTCGCCTGGCGCTGACGATGATTATCGCGCACCAGCGCCTGCGTGATGCACCGATCCCGGTTAACGAGGATTTATCGGCGTTTCACCGACAAATGCGCCGCACAGCAGACCATGTGATATCTGCCCGTAGCGATGATAAACGTCGTCGGTACTTTGGCCAGTTGCTGGAAGAACTGGAAATCTACCAGGAAAAGCTACGCATCTGGCAAGCGCCACCGCAGGTGACGGAACCGGTAAATCGGCTGGCGGGGATGCTCCATAAGTATCAACATGCGTTGACCGATAGTTAAGTCAAAACCGACGCCAAAAGCGTCGGTTTTTTCATGGCTATACTTAGCGATGCACGGCAGAACTCGCCGCGAAACGTGACGGTGGCAACAG (double strand) [yhcO probe]”, under setting [1], the binding result is given as “binds”.
On the same count and under the same terms, under “AAGTTAAATATAACTTTTACTGGAAATAAGATCAGCCATTTTTTTATAAACATAAGCTATACGCTGTGCGAAAATATATTCGTGCTGCATTTACTTATTATCAATTAACTGTTATGCAAAACTACTTTGTGGATAAATTTTGGTCCTACCAAATCTGGCAGTTTTTGCGCTAAGAAACAGTCTGGCATCATTTCATTAGTATACTGAAATTGAAATAATCGCAGTATGAAATATAAGGGATAATCATGACTCATGTCTGCTCGGTGATCCTCATTCGTCGTTCATTCGATATTTATCATGAACAGCAAAAAATATCGCTGCATAACGAGAGTATTCT (double strand) [gadW/gadY probe]” stands “binds”; under “AGAAACATCCATAAATTAATCATAGCTCAACCTCCTGCCGCGCTAAAAAACCTGTAACTTCAGTCACTTTAATAGTAAGACAATCCTTAACCTCTGGCAATTTTTGCTAAGCATCAATGAAAACAGCATGTTAAATGCAAGACTGTTGTGTACGGAAAAATATTTACTTTGCACGATTAATAATCAGTAGCTGAAAGCAGTCAGCGAGTGATAAAGTACAGATACCGCATTCATGCTCCTCGTGGTTATGTCCTGACTAGTCTTTACACTCTTTACAGGAACCATTGTCGTACATGATGGCCCAACCAATTGAGTGTACCGCTGTCGACATGGAATCTTCTGCGATACAACAATTCGTATCTACAGAAGGTAACT (double strand) [yfdY/lpxP probe]”, “binds”.

These data come from article PMC10272880.
